From the supplement of paper PMC10849652
Some of the results follow.

Amino acid sequences for entries named in this document (tags omitted). A change or cut given only in a name is not applied to a line headed by its entry.
UniProt O94927: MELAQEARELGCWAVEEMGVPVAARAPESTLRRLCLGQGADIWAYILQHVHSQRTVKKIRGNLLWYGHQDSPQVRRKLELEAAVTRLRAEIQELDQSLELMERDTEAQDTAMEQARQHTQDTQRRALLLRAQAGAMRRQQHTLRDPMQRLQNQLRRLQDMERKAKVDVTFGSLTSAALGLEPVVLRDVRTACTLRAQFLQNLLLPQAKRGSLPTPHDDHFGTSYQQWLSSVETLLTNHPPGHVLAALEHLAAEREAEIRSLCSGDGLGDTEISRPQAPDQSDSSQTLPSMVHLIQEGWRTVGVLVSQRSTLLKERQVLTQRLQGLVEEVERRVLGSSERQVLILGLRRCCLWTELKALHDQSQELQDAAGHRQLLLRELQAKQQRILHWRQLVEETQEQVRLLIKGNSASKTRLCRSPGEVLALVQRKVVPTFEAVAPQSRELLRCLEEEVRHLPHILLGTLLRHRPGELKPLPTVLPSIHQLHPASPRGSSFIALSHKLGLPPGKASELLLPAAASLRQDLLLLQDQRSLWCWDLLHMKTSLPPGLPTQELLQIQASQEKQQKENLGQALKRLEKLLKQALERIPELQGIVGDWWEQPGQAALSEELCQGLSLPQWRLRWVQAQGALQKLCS
UniProt Q7Z4Q2: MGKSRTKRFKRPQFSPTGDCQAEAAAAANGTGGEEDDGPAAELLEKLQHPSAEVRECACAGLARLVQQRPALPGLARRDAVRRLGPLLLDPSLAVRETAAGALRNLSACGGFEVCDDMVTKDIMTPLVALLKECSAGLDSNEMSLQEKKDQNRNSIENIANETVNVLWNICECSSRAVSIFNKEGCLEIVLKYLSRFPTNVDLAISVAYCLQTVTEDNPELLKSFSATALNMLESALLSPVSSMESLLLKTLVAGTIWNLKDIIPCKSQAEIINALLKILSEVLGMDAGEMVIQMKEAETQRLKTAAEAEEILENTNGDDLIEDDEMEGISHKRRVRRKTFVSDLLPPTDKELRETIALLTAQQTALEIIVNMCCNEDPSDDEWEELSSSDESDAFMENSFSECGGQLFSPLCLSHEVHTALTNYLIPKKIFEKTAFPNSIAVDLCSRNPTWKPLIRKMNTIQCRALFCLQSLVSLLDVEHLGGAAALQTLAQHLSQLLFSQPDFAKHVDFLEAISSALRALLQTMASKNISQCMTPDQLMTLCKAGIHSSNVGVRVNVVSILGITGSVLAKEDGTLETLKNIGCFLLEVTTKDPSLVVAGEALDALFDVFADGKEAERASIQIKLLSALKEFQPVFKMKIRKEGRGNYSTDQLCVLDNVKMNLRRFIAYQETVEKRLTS
UniProt P49841: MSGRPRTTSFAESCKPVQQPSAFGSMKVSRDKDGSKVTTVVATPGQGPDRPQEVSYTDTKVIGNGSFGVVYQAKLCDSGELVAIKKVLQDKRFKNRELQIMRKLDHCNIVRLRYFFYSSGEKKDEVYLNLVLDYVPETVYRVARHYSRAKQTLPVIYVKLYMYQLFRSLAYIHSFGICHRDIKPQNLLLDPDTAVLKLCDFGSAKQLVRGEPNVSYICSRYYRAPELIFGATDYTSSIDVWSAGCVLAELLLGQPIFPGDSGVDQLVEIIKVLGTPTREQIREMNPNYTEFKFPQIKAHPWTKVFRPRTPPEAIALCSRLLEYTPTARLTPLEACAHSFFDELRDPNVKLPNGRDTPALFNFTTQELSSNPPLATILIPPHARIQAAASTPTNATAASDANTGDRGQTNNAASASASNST
UniProt O75791: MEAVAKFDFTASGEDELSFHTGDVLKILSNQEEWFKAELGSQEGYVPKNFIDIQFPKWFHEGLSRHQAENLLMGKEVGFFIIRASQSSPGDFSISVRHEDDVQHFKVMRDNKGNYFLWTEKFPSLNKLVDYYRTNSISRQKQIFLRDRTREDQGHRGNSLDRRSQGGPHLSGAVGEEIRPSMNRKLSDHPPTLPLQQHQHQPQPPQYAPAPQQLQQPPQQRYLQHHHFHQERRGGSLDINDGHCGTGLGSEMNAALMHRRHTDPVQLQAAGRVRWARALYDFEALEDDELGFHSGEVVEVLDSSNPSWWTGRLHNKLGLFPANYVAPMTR
UniProt P48637: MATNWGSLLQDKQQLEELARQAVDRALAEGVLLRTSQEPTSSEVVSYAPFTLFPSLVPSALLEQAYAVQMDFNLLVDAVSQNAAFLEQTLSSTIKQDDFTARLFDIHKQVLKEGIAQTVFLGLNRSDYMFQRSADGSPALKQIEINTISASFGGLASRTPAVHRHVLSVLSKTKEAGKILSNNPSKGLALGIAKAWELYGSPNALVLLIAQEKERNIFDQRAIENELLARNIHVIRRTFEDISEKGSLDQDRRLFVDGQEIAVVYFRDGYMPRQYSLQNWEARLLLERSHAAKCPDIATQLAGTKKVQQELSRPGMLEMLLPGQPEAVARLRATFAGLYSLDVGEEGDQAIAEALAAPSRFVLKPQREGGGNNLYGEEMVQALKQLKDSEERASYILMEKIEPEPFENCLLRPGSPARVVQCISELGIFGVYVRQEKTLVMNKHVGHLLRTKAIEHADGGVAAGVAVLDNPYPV
UniProt P32780: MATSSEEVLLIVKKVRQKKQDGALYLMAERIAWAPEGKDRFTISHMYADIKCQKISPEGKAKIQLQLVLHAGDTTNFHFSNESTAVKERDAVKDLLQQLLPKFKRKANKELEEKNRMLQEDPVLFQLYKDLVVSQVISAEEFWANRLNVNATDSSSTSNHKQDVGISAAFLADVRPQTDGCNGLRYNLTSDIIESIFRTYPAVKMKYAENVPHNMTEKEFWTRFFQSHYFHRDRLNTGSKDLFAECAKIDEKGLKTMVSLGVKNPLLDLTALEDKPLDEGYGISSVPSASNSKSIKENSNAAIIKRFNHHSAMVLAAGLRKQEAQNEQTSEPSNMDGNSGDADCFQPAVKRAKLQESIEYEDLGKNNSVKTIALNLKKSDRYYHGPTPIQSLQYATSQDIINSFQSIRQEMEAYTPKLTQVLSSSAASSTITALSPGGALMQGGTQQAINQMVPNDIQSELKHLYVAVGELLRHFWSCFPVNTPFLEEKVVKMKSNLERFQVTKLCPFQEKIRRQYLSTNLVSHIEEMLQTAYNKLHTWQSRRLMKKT
UniProt P34947, whole entry, looked up: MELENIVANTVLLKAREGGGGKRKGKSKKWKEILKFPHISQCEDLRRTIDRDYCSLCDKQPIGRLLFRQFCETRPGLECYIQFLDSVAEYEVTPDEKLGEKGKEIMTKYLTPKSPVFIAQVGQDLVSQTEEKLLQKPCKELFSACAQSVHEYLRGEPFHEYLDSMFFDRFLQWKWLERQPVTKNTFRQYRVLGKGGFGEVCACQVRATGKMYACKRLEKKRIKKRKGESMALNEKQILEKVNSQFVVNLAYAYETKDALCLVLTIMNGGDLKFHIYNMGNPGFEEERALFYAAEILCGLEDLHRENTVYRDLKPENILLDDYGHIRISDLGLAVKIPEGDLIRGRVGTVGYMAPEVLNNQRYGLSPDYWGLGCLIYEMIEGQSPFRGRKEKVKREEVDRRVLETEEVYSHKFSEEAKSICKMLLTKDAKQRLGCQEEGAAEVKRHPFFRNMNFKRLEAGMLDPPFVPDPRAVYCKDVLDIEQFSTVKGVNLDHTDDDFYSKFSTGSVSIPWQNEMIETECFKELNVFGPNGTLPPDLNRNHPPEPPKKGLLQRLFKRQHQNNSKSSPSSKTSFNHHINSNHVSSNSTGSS
UniProt P16403, whole entry, looked up: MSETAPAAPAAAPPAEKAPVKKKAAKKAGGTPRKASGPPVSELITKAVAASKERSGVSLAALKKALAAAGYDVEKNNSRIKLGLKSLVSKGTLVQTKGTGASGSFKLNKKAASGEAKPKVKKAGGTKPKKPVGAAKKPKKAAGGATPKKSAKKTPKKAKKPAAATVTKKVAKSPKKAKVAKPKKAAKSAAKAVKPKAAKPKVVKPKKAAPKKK
UniProt P02724: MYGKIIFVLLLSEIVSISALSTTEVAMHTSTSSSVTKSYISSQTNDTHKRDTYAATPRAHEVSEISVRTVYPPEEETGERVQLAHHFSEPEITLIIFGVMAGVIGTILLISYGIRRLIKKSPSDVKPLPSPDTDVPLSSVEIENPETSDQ
UniProt P02100: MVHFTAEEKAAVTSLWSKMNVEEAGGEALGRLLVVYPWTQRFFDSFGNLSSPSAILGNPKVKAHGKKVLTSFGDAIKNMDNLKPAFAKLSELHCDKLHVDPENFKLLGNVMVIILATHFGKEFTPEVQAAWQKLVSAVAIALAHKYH
UniProt Q9UQL6: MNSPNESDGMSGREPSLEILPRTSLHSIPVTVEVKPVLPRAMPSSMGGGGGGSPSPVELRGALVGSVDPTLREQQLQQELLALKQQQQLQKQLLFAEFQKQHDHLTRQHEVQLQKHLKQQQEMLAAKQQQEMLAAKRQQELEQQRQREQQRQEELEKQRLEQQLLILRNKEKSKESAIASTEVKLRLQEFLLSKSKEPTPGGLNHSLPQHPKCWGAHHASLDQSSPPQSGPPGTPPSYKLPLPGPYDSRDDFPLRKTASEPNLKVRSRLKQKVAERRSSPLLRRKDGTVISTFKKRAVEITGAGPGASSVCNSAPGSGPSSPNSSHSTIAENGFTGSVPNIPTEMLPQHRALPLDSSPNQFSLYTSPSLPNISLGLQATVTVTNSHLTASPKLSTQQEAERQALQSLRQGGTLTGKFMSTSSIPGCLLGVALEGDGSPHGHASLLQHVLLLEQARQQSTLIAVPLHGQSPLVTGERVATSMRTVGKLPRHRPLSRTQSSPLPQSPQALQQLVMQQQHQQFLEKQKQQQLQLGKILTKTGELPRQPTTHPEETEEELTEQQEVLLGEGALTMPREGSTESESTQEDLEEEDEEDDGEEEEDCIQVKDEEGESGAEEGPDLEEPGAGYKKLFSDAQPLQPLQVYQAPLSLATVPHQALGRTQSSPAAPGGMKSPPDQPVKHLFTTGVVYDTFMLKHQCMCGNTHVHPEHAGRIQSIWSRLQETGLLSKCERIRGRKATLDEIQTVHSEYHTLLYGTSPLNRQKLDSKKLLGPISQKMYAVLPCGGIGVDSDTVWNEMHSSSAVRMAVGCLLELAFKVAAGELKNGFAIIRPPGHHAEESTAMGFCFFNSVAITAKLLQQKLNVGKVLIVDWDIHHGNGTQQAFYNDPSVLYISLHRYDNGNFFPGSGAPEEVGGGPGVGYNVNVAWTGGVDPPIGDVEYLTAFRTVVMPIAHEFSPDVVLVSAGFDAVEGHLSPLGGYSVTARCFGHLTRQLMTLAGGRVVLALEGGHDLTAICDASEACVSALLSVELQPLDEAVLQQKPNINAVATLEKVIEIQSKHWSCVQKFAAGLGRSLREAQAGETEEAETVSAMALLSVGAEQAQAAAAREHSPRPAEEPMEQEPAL
UniProt Q92522: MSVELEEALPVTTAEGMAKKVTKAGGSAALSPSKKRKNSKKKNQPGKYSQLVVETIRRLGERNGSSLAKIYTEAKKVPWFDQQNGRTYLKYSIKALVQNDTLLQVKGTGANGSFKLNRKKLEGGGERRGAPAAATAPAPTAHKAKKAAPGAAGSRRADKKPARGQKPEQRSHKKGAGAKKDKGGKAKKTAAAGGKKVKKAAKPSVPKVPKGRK
UniProt P55084: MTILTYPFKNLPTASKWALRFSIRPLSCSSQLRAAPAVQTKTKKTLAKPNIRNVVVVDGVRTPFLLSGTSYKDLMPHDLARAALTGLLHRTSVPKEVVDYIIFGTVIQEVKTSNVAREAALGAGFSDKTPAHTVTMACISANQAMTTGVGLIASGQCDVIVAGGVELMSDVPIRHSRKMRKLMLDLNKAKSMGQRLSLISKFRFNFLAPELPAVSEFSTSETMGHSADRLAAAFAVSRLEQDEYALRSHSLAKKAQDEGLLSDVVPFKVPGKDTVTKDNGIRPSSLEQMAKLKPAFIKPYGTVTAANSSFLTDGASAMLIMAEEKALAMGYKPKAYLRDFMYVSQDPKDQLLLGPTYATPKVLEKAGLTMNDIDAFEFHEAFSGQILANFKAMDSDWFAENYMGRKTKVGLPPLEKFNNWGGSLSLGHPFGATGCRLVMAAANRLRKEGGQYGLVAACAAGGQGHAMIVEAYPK
UniProt Q9P0R6: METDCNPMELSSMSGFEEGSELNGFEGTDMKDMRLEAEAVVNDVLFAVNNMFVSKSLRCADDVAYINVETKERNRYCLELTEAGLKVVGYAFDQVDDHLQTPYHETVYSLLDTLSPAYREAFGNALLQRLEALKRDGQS
UniProt P29083: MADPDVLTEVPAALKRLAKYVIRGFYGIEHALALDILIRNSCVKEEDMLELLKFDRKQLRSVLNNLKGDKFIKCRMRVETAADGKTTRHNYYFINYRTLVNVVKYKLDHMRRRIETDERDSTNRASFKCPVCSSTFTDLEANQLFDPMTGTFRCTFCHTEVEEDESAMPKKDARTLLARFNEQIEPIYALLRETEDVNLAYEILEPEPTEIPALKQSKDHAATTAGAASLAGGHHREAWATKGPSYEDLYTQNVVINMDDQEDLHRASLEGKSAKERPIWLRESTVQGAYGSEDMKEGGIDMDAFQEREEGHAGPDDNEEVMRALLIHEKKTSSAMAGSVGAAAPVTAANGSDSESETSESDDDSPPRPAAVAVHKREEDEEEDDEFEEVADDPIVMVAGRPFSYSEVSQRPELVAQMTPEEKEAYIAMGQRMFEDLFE

compound: O=C(CCCCCCC(=O)Nc1ccccc1)NO [vorinostat]; assay: log2 fold change, soluble protein after heating vs DMSO (PISA); higher = thermal stabilisation; K562 lysate, 10 uM; active = over 0.2 and 3.5 SD of the protein, either way, in both replicates (recomputed)
Procedure, shortened: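 To prepare the extract, K562 pellets were dounce-homogenised in PBS pH 7.4 with 1 mM MgCl2, giving crude material at 1 mg/mL protein. This was treated with 10 μM compound for 30 min, then heated in aliquots for 3 min over 48°C-58°C before pooling and addition of NP-40 to 0.5% at 4°C. Centrifugation at 21,000xg for 90 min left soluble protein in the supernatant, which TMTpro 16plex LC-MS/MS quantified with equalised channel sums. Results are log-two fold changes in thermal stability compared with solvent controls, from duplicates.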

| Target | log2 fold change |
| --- | --- |
| HEATR5B (UniProt Q9P2D3) | inactive: -0.128 |
| HAUS5 (UniProt O94927) | active: -0.416 |
| HEATR3 (UniProt Q7Z4Q2) | active: -0.5 |
| GSK3B isoform 2 (UniProt P49841) | inactive: 0.253 |
| GTPBP1 (UniProt O00178) | inactive: -0.028 |
| GRAP2 (UniProt O75791) | inactive: -0.073 |
| GTF2H2 (UniProt Q13888) | inactive: -0.05 |
| GSS (UniProt P48637) | inactive: 0.116 |
| GTF2H1 (UniProt P32780) | active: -0.412 |
| HBS1L isoform 2 (UniProt Q9Y450) | inactive: -0.083 |
| GRK5 (UniProt P34947) | inactive: -0.218 |
| GRB2 (UniProt P62993) | inactive: 0.082 |
| H1-2 (UniProt P16403) | inactive: 0.111 |
| H3-3A (UniProt P84243) | inactive: -0.077 |
| GYPA (UniProt P02724) | inactive: 0.152 |
| HAUS8 (UniProt Q9BT25) | active: -0.38 |
| HBE1 (UniProt P02100) | inactive: 0.085 |
| HDAC5 isoform 3 (UniProt Q9UQL6) | inactive: -0.079 |
| HAUS4 (UniProt Q9H6D7) | active: -0.255 |
| H1FX (UniProt Q92522) | inactive: 0.141 |
| HADHB (UniProt P55084) | inactive: -0.199 |
| GSKIP (UniProt Q9P0R6) | inactive: 0.194 |
| GTF2E1 (UniProt P29083) | inactive: -0.002 |

2 entries from above, as labelled records.
HDAC5 isoform 3 (UniProt Q9UQL6)
  log2 fold change: inactive: -0.079
HAUS4 (UniProt Q9H6D7)
  log2 fold change: active: -0.255
